The list does not hold the whole screen: it is rich in T/C values a quarter to a half above the control, in often repeated tests (any T/C) and in doses without a T/C. Other doses and runs of a compound stand elsewhere. T/C is the treated group as % of the vehicle group. Some entries give survivors of the animals treated and no T/C: the source files T/C as zero there, which appears to mark a toxic dose or a test without result, not a measured value. Some doses without a T/C left all or most animals alive at the check, yet need not have been tolerated: the source hardly ever lists a survival T/C far under the control, and the zero likely stands for such cases as well. Survivors were counted at the toxicity check, usually on the fifth day, unless a day is given; later deaths do not show. Schedules are NCI's codes, read here as Q, the interval in days (D) or hours (H), X, the number of doses.
Test system: L1210 leukemia ip in BDF1 mice, survival T/C
Experiment: NCI In Vivo Anticancer Drug Screen. Data for tumor model L1210 Leukemia (intraperitoneal) in B6D2F1 (BDF1) mice
Conditions: T/C endpoint: mean survival time, higher T/C = longer survival
[1] = dose: 400.0 mg/kg/injection, schedule: Q04DX003 (ip), vehicle: saline with Tween-80
[2] = dose: 100.0 mg/kg/injection, schedule: Q04DX003 (ip), vehicle: saline
[3] = dose: 200.0 mg/kg/injection, schedule: Q04DX003 (ip), vehicle: saline
[4] = dose: 400.0 mg/kg/injection, schedule: Q04DX003 (ip), vehicle: saline
[5] = dose: 200.0 mg/kg/injection, schedule: Q04DX003 (ip), vehicle: Klucel (hydroxypropylcellulose) (HPC)
[6] = dose: 400.0 mg/kg/injection, schedule: Q04DX003 (ip), vehicle: Klucel (hydroxypropylcellulose) (HPC)
[7] = dose: 200.0 mg/kg/injection, schedule: Q01DX001 (ip), vehicle: saline

SMILES: Nc1nc(N)c2cc(NCc3ccc(F)cc3)ccc2n1
- survivor count (dose: 12.5 mg/kg/injection, schedule: Q04DX003 (ip), vehicle: saline with Tween-80): 6 of 6
- survivor count (dose: 25.0 mg/kg/injection, schedule: Q04DX003 (ip), vehicle: saline with Tween-80): 6 of 6
- survivor count (dose: 100.0 mg/kg/injection, schedule: Q04DX003 (ip), vehicle: saline with Tween-80): 3 of 6
- survivor count (dose: 200.0 mg/kg/injection, schedule: Q04DX003 (ip), vehicle: saline with Tween-80): 0 of 6
- survivor count [1]: 0 of 6

SMILES: Cc1ccc(C(O)c2ccccc2)cc1 (stereo not given)
- survivor count (dose: 400.0 mg/kg/injection, schedule: Q01DX009 (ip), vehicle: saline with Tween-80): 3 of 6

SMILES: CCN(CC)CCC1CCNCC1
- survivor count (dose: 50.0 mg/kg/injection, schedule: Q04DX003 (ip), vehicle: saline): 0 of 6
- survivor count [2]: 1 of 6
- survivor count [3]: 0 of 6
- survivor count [4]: 0 of 6

SMILES: O=C(CCl)c1ccc(Oc2ccccc2)cc1
- survivor count (dose: 80.0 mg/kg/injection, schedule: Q01DX009 (ip), vehicle: Klucel (hydroxypropylcellulose) (HPC)): 3 of 6
- survivor count [5]: 3 of 6
- survivor count [6]: 0 of 6

SMILES: CN(C)N=Nc1ccccc1CO
- survivor count (dose: 6.25 mg/kg/injection, schedule: Q04DX003 (ip), vehicle: other): 6 of 6
- survivor count (dose: 12.5 mg/kg/injection, schedule: Q01DX009 (ip), vehicle: other): 3 of 6
- survivor count (dose: 12.5 mg/kg/injection, schedule: Q04DX003 (ip), vehicle: other): 6 of 6
- survivor count (dose: 25.0 mg/kg/injection, schedule: Q01DX009 (ip), vehicle: other): 1 of 6
- survivor count (dose: 25.0 mg/kg/injection, schedule: Q04DX003 (ip), vehicle: other): 6 of 6
- survivor count (dose: 50.0 mg/kg/injection, schedule: Q01DX009 (ip), vehicle: other): 0 of 6
- survivor count (dose: 100.0 mg/kg/injection, schedule: Q01DX009 (ip), vehicle: other): 0 of 6
- survivor count (dose: 100.0 mg/kg/injection, schedule: Q04DX003 (ip), vehicle: other): 0 of 6
- survivor count (dose: 200.0 mg/kg/injection, schedule: Q01DX009 (ip), vehicle: other): 0 of 6
- survivor count (dose: 200.0 mg/kg/injection, schedule: Q04DX003 (ip), vehicle: other): 0 of 6
- survivor count (dose: 400.0 mg/kg/injection, schedule: Q01DX009 (ip), vehicle: other): 0 of 6

SMILES: O=C(C[n+]1ccccc1)N/N=C/c1ccc(O)c(O)c1
- survivor count [1]: 0 of 6

SMILES: CCCCCCCCCCCSc1ccc2ccccc2c1
- survivor count (dose: 400.0 mg/kg/injection, schedule: Q01DX001 (ip), vehicle: Klucel (hydroxypropylcellulose) (HPC)): 6 of 6

SMILES: NC(N)=NCC(O)c1ccccc1 (stereo not given)
- survivor count (dose: 50.0 mg/kg/injection, schedule: Q01DX001 (ip), vehicle: Klucel (hydroxypropylcellulose) (HPC)): 0 of 6
- survivor count (dose: 100.0 mg/kg/injection, schedule: Q01DX001 (ip), vehicle: Klucel (hydroxypropylcellulose) (HPC)): 1 of 6
- survivor count (dose: 200.0 mg/kg/injection, schedule: Q01DX001 (ip), vehicle: Klucel (hydroxypropylcellulose) (HPC)): 0 of 6

SMILES: Cc1ccc(-n2c(=O)[nH]c3c(c2=O)C(c2ccc(Cl)cc2)C(C)(C)O3)cc1 (stereo not given)
- survivor count (dose: 25.0 mg/kg/injection, schedule: Q01DX001 (ip), vehicle: saline): 6 of 6
- survivor count (dose: 100.0 mg/kg/injection, schedule: Q01DX001 (ip), vehicle: saline): 6 of 6
- survivor count [7]: 6 of 6
- survivor count (dose: 400.0 mg/kg/injection, schedule: Q01DX001 (ip), vehicle: saline): 2 of 6

SMILES: CN=C1C2CCC(C2)CC1(O)c1ccccc1 (stereo not given)
- survivor count [7]: 1 of 6

SMILES: CCCCCCSC(=O)Nc1ccc(C)c(NC(=O)SCCCCCC)c1
- survivor count [1]: 6 of 6

SMILES: c1ccc(-c2n[nH]c(-c3ccccn3)n2)nc1
- survivor count (dose: 25.0 mg/kg/injection, schedule: Q01DX009 (ip), vehicle: Klucel (hydroxypropylcellulose) (HPC)): 1 of 3
- survivor count (dose: 50.0 mg/kg/injection, schedule: Q01DX009 (ip), vehicle: Klucel (hydroxypropylcellulose) (HPC)): 1 of 3
- survivor count (dose: 100.0 mg/kg/injection, schedule: Q01DX009 (ip), vehicle: Klucel (hydroxypropylcellulose) (HPC)): 0 of 3
- survivor count (dose: 200.0 mg/kg/injection, schedule: Q01DX009 (ip), vehicle: Klucel (hydroxypropylcellulose) (HPC)): 0 of 3

SMILES: Cn1cnc(=S)c2ccccc21
- survivor count (dose: 100.0 mg/kg/injection, schedule: Q04DX003 (ip), vehicle: Klucel (hydroxypropylcellulose) (HPC)): 3 of 3
- survivor count [5]: 1 of 3
- survivor count [6]: 1 of 3

SMILES: C=C(Cl)CO
- survivor count [2]: 0 of 3
- survivor count [3]: 0 of 3
- survivor count [4]: 0 of 3

Reference: PubChem BioAssay AID248 (DTP/NCI, 2004)
